Data: paper doi:10.1101/2025.01.07.631698
These are yes or no findings as the source states them, for the method shown. Tags and fused reporters may be left off the sequences shown.

Target: T1, Anillin-GFP (full-length human anillin, isoform 2, 1087 amino acids) (human), Q9NQW6
T1 chain: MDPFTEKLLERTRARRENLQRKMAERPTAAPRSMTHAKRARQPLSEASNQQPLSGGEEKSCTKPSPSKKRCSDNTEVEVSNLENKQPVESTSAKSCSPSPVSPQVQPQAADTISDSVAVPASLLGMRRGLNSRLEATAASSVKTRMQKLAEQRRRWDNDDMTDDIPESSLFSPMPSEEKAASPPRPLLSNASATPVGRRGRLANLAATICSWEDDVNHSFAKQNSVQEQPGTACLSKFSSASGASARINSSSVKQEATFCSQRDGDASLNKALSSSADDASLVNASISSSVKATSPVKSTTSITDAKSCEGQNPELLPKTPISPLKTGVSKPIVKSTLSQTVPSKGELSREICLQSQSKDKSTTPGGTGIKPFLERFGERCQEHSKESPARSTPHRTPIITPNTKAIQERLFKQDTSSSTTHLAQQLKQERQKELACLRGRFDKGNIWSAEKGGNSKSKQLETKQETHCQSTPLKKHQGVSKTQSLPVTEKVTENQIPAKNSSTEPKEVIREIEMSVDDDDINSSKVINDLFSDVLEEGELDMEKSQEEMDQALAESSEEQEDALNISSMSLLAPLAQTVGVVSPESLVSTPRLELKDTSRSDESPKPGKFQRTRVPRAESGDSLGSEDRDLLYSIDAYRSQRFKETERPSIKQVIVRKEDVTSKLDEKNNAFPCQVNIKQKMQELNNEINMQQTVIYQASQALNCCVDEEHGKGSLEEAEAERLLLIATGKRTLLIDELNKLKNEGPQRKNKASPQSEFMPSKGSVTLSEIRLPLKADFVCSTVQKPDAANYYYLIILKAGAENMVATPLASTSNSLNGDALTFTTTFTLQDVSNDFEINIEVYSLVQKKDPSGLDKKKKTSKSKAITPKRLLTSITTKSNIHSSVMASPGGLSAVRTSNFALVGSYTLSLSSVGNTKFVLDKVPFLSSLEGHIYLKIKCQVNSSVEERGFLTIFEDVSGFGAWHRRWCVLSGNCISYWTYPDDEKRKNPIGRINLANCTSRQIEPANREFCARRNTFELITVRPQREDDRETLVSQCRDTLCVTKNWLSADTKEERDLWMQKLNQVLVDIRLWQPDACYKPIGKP
Assay: mass photometry
Settings: remark: other sources report otherwise

- binding: no binding (tested: 5, 15 or 50 nM)
B1: Anillin-GFP (full-length human anillin, isoform 2, 1087 amino acids), Q9NQW6-2 1-1087 (protein)
chain: MDPFTEKLLERTRARRENLQRKMAERPTAAPRSMTHAKRARQPLSEASNQQPLSGGEEKSCTKPSPSKKRCSDNTEVEVSNLENKQPVESTSAKSCSPSPVSPQVQPQAADTISDSVAVPASLLGMRRGLNSRLEATAASSVKTRMQKLAEQRRRWDNDDMTDDIPESSLFSPMPSEEKAASPPRPLLSNASATPVGRRGRLANLAATICSWEDDVNHSFAKQNSVQEQPGTACLSKFSSASGASARINSSSVKQEATFCSQRDGDASLNKALSSSADDASLVNASISSSVKATSPVKSTTSITDAKSCEGQNPELLPKTPISPLKTGVSKPIVKSTLSQTVPSKGELSREICLQSQSKDKSTTPGGTGIKPFLERFGERCQEHSKESPARSTPHRTPIITPNTKAIQERLFKQDTSSSTTHLAQQLKQERQKELACLRGRFDKGNIWSAEKGGNSKSKQLETKQETHCQSTPLKKHQGVSKTQSLPVTEKVTENQIPAKNSSTEPKEVIREIEMSVDDDDINSSKVINDLFSDVLEEGELDMEKSQEEMDQALAESSEEQEDALNISSMSLLAPLAQTVGVVSPESLVSTPRLELKDTSRSDESPKPGKFQRTRVPRAESGDSLGSEDRDLLYSIDAYRSQRFKETERPSIKQVIVRKEDVTSKLDEKNNAFPCQVNIKQKMQELNNEINMQQTVIYQASQALNCCVDEEHGKGSLEEAEAERLLLIATGKRTLLIDELNKLKNEGPQRKNKASPQSEFMPSKGSVTLSEIRLPLKADFVCSTVQKPDAANYYYLIILKAGAENMVATPLASTSNSLNGDALTFTTTFTLQDVSNDFEINIEVYSLVQKKDPSGLDKKKKTSKSKAITPKRLLTSITTKSNIHSSVMASPGGLSAVRTSNFALVGSYTLSLSSVGNTKFVLDKVPFLSSLEGHIYLKIKCQVNSSVEERGFLTIFEDVSGFGAWHRRWCVLSGNCISYWTYPDDEKRKNPIGRINLANCTSRQIEPANREFCARRNTFELITVRPQREDDRETLVSQCRDTLCVTKNWLSADTKEERDLWMQKLNQVLVDIRLWQPDACYKPIGKP
